Primary screen of a compound library

Chains of the proteins cited; added tags and fusions are not shown. Residues count along the entry.
UniProt Q4DA54, 1-478: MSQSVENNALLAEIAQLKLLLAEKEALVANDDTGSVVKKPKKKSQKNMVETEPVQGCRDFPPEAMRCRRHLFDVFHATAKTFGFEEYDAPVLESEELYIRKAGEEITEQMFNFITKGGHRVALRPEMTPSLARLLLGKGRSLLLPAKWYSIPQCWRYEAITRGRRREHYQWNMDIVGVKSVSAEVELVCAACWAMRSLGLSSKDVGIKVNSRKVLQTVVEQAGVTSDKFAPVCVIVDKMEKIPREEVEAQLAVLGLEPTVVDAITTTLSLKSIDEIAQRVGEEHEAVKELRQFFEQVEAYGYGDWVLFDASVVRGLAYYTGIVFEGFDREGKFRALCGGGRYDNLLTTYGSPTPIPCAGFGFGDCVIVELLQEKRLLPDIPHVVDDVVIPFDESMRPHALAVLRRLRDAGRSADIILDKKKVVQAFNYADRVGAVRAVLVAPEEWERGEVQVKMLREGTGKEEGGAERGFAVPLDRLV
UniProt A4I591, 1-473: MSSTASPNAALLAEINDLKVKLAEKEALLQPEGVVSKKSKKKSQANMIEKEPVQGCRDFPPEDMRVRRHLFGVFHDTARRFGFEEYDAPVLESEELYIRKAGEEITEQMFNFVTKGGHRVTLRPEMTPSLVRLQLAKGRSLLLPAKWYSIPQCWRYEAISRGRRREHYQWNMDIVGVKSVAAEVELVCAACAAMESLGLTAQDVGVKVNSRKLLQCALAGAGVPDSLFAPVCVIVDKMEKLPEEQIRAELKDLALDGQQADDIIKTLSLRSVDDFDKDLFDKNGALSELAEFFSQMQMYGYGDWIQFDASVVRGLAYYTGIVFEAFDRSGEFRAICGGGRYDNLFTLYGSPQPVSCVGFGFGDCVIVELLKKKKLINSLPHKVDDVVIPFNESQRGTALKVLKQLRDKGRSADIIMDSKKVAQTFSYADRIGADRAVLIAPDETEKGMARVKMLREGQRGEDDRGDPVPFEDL
UniProt Q8IDJ8, 1-583: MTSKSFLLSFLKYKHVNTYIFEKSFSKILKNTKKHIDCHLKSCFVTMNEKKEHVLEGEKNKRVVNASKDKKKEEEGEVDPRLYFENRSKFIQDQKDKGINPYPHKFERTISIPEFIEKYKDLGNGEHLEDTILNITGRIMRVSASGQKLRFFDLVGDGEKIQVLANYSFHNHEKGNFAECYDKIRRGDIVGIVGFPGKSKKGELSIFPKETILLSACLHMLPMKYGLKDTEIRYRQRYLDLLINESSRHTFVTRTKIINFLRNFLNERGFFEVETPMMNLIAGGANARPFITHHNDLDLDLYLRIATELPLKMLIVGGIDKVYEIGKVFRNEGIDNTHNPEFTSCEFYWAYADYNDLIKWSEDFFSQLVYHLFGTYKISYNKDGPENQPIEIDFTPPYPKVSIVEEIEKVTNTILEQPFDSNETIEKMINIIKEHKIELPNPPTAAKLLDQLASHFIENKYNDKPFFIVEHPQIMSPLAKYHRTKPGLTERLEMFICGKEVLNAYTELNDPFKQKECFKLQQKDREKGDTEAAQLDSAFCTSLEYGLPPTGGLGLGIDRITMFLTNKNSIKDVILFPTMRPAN
UniProt P9WNZ1, whole entry: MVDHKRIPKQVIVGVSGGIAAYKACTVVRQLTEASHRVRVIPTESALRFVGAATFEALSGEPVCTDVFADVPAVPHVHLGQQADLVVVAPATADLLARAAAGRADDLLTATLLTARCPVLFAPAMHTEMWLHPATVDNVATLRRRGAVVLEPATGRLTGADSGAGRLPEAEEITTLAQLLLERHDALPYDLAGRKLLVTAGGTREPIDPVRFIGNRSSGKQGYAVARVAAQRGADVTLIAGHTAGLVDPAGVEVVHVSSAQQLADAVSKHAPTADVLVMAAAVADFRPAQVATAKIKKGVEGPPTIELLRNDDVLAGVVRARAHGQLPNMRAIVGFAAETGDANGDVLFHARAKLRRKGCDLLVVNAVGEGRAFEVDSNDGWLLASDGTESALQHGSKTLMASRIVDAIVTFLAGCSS

From ChEMBL document CHEMBL3988442, “University of Dundee, Small-Polar-MMV Screening Library” (2021).

TcHisRS: 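Enzyme assay of histidyl-tRNA synthetase; the read-out is not stated. Target: Histidine-tRNA ligase, Trypanosoma cruzi CL Brener (UniProt Q4DA54). Compounds at 30 µM. Higher reads as stronger inhibition (inferred: compounds with an IC50 in retests scored well above the rest). Of about 69,000 compounds tested this way, about 31 (0.045%) reached 50% or more in at least one test.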
LiHisRS: 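Enzyme assay of histidyl-tRNA synthetase; the read-out is not stated. Target: Histidine-tRNA ligase, Leishmania infantum (UniProt A4I591). Compounds at 30 µM. Direction is inferred from retests: higher values go with stronger inhibition. The assay is labelled LdHisRS but filed under L. infantum. Size under these conditions: about 69,000 compounds, about 410 of them at 50% or above in at least one test.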
Toxoplasma: 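Assay of Toxoplasma gondii numbers, read through their beta-galactosidase reporter with a colour substrate. Tested at 10 µM. The record gives no direction; the compounds picked for IC50 retests had high values, so higher reads as fewer parasites. About 67,000 compounds were tested under these conditions; 0.38% (about 260) showed 50% or more at least once.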
PfKRS1: 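Enzyme assay of the cytosolic lysyl-tRNA synthetase in 384-well plates, read by luminescence. Target: Lysine-tRNA ligase, Plasmodium falciparum 3D7 (UniProt Q8IDJ8). Tested at 30 µM. Direction is inferred from only a few compounds that gave an IC50; most scored high, so higher reads as stronger inhibition. Size under these conditions: about 69,000 compounds, about 49 of them at 50% or above in at least one test.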
CoaBC: 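Coenzyme A biosynthesis protein CoaBC, Mycobacterium tuberculosis (UniProt P9WNZ1). Enzyme assay of CoaBC with a phosphate dye (Biomol Green) read at 650 nm. Tested at 30 µM. Direction is inferred from only a few compounds that gave an IC50; most scored high, so higher reads as stronger inhibition. Most strong results did not repeat in a second test. Size under these conditions: about 67,000 compounds, about 40 of them at 50% or above in at least one test.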

Values are the deposited “Percent Effect”, in %.
The record does not define 0% and 100%; most values in the screen are far below 50% and negative numbers occur (in some assays of this library far below -100).
This is an unselected part of the compounds tested.
A dash means the value is not listed here; it may have been measured.

With CC(=O)N1CCC(c2nccnc2CNC(=O)c2cc[nH]n2)CC1 the screen gave TcHisRS: 9.231%; LiHisRS: 12.68%; PfKRS1: 2.717%; CoaBC: 7.363%.
With CCOCCSc1nnc(Cc2ccccc2F)o1 the screen gave TcHisRS: 4.255%; LiHisRS: 7.143%; Toxoplasma: -32.46%; PfKRS1: 6.878%; CoaBC: -5.943%.
With Cc1nn2cnnc2c(C)c1CCC(=O)Nc1nnc(C2CC2)s1 the screen gave TcHisRS: 7.216%; LiHisRS: 20.88%; Toxoplasma: 8.586%; PfKRS1: -3.07%; CoaBC: 5.896%.
With CC(C)C(=O)Nc1ccc2c(c1)ncn2CC(=O)NCCN(C)C the screen gave TcHisRS: 4.95%; LiHisRS: 14.29%; Toxoplasma: 7.209%; PfKRS1: -2.54%; CoaBC: -0.9639%.
With Cc1ccc(CNCc2nccn2C)c(OCC2CC2)c1 the screen gave TcHisRS: 0%; LiHisRS: 11.67%; Toxoplasma: 31.92%; PfKRS1: 1.864%; CoaBC: 5.718%.
With COC(=O)CCC(=O)N1CCc2nc(C(=O)N3CCOCC3)sc2CC1 the screen gave TcHisRS: -1.266%; LiHisRS: 15.52%; Toxoplasma: -2.319%; PfKRS1: 6.461%.
With CC(=O)N(Cc1ncc(C)o1)C1CCN(Cc2cnc(C)s2)C1 (stereo not given) the screen gave TcHisRS: -9.639%; LiHisRS: 12.82%; Toxoplasma: -12.01%; PfKRS1: 4.376%; CoaBC: -0.2545%.
With Cc1cc(CN(C)CC2CCCCC2)no1 the screen gave TcHisRS: 5.978%; LiHisRS: -2.667%; Toxoplasma: 1.124%; PfKRS1: 0.9389%; CoaBC: -6.198%.
With Cc1noc(C)c1CN1C[C@@H](N(C)Cc2ccco2)[C@H]2OCCC[C@H]21 the screen gave TcHisRS: 11.22%; LiHisRS: 29%; PfKRS1: 1.218%; CoaBC: 0.8653%.
With Fc1ccc(CNCC2OCCc3cn(CC4CC4)nc32)cc1 (stereo not given) the screen gave TcHisRS: 2.762%; LiHisRS: 7.519%; PfKRS1: 5.577%; CoaBC: 10.8%.
With CCn1nc2c(cc1=O)CN(Cc1nc(-c3ccsc3)no1)CC2 the screen gave TcHisRS: 4.58%; LiHisRS: 27.66%; Toxoplasma: -12.26%; PfKRS1: -0.6564%; CoaBC: 0%.
With Cc1cc(C(=O)NCCN2CCCc3ccccc32)[nH]n1 the screen gave TcHisRS: 5.202%; LiHisRS: 0%; Toxoplasma: -14.95%; PfKRS1: 4.155%; CoaBC: -2.73%.
With CC(C)S(=O)(=O)CCN1CCc2c(ncn2C2CC2)C1 the screen gave TcHisRS: 6.14%; LiHisRS: 17.7%; Toxoplasma: 4.457%; PfKRS1: 3.14%; CoaBC: -1.263%.
With CC(=O)N1CCC2(CC1)c1ncc(-c3ccc(F)cc3)n1CCN2C the screen gave TcHisRS: 3.175%; LiHisRS: 6.364%; Toxoplasma: -35.95%; PfKRS1: 3.615%; CoaBC: 0.9877%.
With O=C(NCc1ccc(Cl)cc1)[C@@H]1Cc2[nH]cnc2CN1CC1CC1 the screen gave TcHisRS: 2.97%; LiHisRS: 27.78%; Toxoplasma: -2.96%; PfKRS1: 9.699%; CoaBC: 8.352%.
With Cc1nc(N2CCN(C(=O)CC3CCCC3)CC2)c2cnn(C)c2n1 the screen gave TcHisRS: 1.327%; LiHisRS: 20.35%; Toxoplasma: 5.847%; PfKRS1: 1.988%; CoaBC: 3.972%.
With O=C(C1CN(Cc2ccsc2)Cc2ccnn2C1)N1CCCC1.O=C(O)C(F)(F)F.O=C(O)C(F)(F)F (stereo not given) the screen gave Toxoplasma: 16.63%.
With COc1ccc(OCc2noc(CN(C)C3CCS(=O)(=O)C3)n2)cc1 (stereo not given) the screen gave TcHisRS: 2.469%; LiHisRS: -37.25%; Toxoplasma: -0.6012%; PfKRS1: 4.181%; CoaBC: 0.1227%.
With CSc1ncccc1C(=O)NCCC(O)c1cccs1 (stereo not given) the screen gave TcHisRS: 3.093%; LiHisRS: 15.65%; Toxoplasma: -0.6435%; PfKRS1: 4.221%; CoaBC: -2.748%.
With CN(C)CCN1CCO[C@@H]2CN(C(=O)Cc3ccsc3)CC[C@@H]2C1 the screen gave TcHisRS: 2.116%; LiHisRS: 10%; PfKRS1: 2.506%; CoaBC: 2.963%.
With CC(C(=O)Nc1cccc(C(F)(F)F)c1)N(C)CCN1CCOCC1 (stereo not given) the screen gave TcHisRS: 4.242%; LiHisRS: 11.11%; Toxoplasma: 7.541%; PfKRS1: 2.502%; CoaBC: -1.703%.

Some entries from above, unchanged:

Compound,TcHisRS,LiHisRS,Toxoplasma,PfKRS1,CoaBC
COc1ccc(OCc2noc(CN(C)C3CCS(=O)(=O)C3)n2)cc1 (stereo not given),2.469%,-37.25%,-0.6012%,4.181%,0.1227%
Cc1noc(C)c1CN1C[C@@H](N(C)Cc2ccco2)[C@H]2OCCC[C@H]21,11.22%,29%,-,1.218%,0.8653%